In all, about 33,000 sequences were measured (“E-score (-0.5 to 0.5)”: median about -0.016, highest 2% from about 0.3 on). The list shows a part of the results.

The assay deals with T1, Yer184c (UniProt P39961).
T1 sequence: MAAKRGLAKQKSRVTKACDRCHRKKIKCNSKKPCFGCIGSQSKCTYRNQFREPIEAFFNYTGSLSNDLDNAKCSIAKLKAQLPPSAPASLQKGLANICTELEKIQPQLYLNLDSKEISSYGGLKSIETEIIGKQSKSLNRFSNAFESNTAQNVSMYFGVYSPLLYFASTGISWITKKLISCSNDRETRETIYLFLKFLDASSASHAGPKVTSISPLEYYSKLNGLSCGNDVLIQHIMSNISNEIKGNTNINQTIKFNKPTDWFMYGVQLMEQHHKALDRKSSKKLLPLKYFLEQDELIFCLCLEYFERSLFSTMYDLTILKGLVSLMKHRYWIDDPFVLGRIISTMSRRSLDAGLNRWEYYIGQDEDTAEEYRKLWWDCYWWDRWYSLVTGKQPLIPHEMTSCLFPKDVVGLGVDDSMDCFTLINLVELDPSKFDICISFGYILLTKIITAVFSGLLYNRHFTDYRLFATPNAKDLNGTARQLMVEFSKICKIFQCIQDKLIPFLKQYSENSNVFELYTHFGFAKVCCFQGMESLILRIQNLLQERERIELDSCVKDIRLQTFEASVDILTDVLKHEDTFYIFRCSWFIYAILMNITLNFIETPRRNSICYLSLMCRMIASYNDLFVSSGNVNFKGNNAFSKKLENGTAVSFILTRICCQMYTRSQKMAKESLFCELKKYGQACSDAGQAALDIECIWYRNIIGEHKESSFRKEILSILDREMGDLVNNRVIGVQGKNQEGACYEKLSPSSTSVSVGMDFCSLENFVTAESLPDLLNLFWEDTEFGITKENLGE
The assay is described as follows: PBM E-score (8-mer binding enrichment) (E-score (-0.5 to 0.5)); higher = stronger / more preferred TF binding. The note with it: protein concentration: 100 nM; construct: GST-full length. The procedure: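 Universal 'all 10-mer' protein binding microarrays (Agilent AMADID 015681) probed with GST-tagged S. cerevisiae TFs (full-length or DBD) made by in vitro transcription/translation (PURExpress), about 100-200 nM. Bound TF was detected with fluorescent anti-GST. Each ungapped 8-mer (which stands for itself and its reverse complement) is scored by the PBM enrichment score (E-score), a modified Wilcoxon-Mann-Whitney statistic from -0.5 to +0.5, computed with the Universal PBM Analysis Suite. Scale: above 0.35 generally sequence-specific binding.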
For AACTAAGG, the “PBM E-score” value is 0.048.
The figure for AAGGCGTG is -0.149; for GGCTTTGA it is 0.162; for CGACCCTC it is -0.0951.
As for GACGCCCA, the “PBM E-score” value was -0.164.
The figure for AGGCGAAC is -0.0698; for GAGAAGCA it is -0.122.
The figure for CTAATAAA is 0.0623.
With TGTGAACA the figure was 0.0218; with CACCTTAA, -0.145.
Take GTGTTGGA: the “PBM E-score” value is -0.109.
The figure for CGGGTCAA is 0.239; for GTCGACAC it is 0.105.
With CATCGTAC, the “PBM E-score” value was -0.109.
The figure for TACGTAAA is -0.0476.
With AATTATGG the figure was 0.108; with CCAGCCCC, -0.228.
With TGGTCAAA the figure was 0.2; with AAACTTAT, 0.236; with AGGCAAGA, -0.112.
In the case of TGGGTCAA, the “PBM E-score” value is -0.147.
As for CGACGACG, the “PBM E-score” value is -0.0826.
The figure for CATCCGCA is 0.108; for CTTTATTA it is 0.0076; for CGAAAATA it is 0.274.
With GAGAGTTA the figure was -0.0682; with ATCTCTTC, 0.0858.
With ACTCGCGC the figure was 0.115; with CCATTACC, -0.0702; with AGATCAGC, 0.13.
Turning to CGCGACGA, the “PBM E-score” value turned out to be 0.0584.
The figure for CAAGCTAG is -0.16.
The figure for CAAACACA is 0.189.
The figure for AGGTCGCC is -0.107; for AGAGTAGA it is 0.109; for CACGTTCC it is -0.176.
ACCGGTTC: the “PBM E-score” value was 0.0994.
With CATCTAGC the figure was -0.092.
The figure for ATGAAGCG is -0.273; for CCAATGGG it is -0.308; for AGACCTTA it is -0.0358.
With TATAATAA the figure was 0.324.
On to AGATTACG, for which the “PBM E-score” value is 0.0921.
The figure for TTTCCAAA is 0.138; for CACGGCCG it is 0.272; for GATTTTGA it is 0.268.
On to AATTTATG, for which the “PBM E-score” value came to 0.307.
With AGGACGAC the figure was -0.234; with CATACGCA, 0.0352.
The figure for GTTGATGA is 0.0524; for TATATAAA it is 0.289.
Consider ACCTCACC, for which the “PBM E-score” value was -0.175.
For CATTCTCA, the “PBM E-score” value worked out at 0.133.
The figure for ACTCATGA is -0.0549.
With CACACAGG the figure was -0.175.
For the sequence GTGTGTGA, the “PBM E-score” value is -0.0295.
With ATGGCAAC the figure was 0.118; with GAATGGTA, -0.0523; with AAATCGTA, -0.0583.
Take GTTCTTCA: the “PBM E-score” value amounted to 0.133.
With ACCAGTTA the figure was -0.0744; with CGCTGTCA, -0.195; with AATCCTCG, -0.0543.
Consider CCGTTTAA, for which the “PBM E-score” value was determined as 0.129.
The figure for AGTGTCTC is -0.0921; for GATGTTGC it is 0.11.
With ACAGACTC the figure was -0.121; with GCTGCCAA, -0.0171; with ATATGGCA, -0.15.
With CACCCACG the figure was -0.0259; with CAGGGTCG, -0.179.
Regarding CTCTTTTA, the “PBM E-score” value was -0.15.
Take AAAGATCC: the “PBM E-score” value was -0.0421.
With AGGTTCCG the figure was 0.285.
The figure for TGCACAAA is 0.0946; for AGCCATAC it is -0.199.
With CCCGGATC the figure was 0.318; with CACTGCAC, -0.158.
As for AGTTCTTG, the “PBM E-score” value came out at 0.193.
With AAGATCGT, the “PBM E-score” value was -0.163.
Regarding ATGGTAAA, the “PBM E-score” value was 0.0619.
For the sequence CGGAATAA, the “PBM E-score” value worked out at 0.25.
The figure for CTTTTTAC is 0.163; for CGGTCTAG it is -0.0149; for GGAGGGCA it is -0.192.
The figure for AAAATACG is 0.142.
